Experimental data: the supplement of paper PMC10849652
This is one part of the list.

The chains behind the UniProt entries cited, without tags or fusion partners. Where a name states a change or a piece, a line headed by the entry shows the natural chain unless it says otherwise.
UniProt Q9ULX9: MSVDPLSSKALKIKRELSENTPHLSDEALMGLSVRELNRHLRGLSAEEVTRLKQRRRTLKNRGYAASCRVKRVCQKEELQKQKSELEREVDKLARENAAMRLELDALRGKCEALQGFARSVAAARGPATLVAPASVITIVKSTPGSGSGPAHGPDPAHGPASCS
UniProt Q8N2S1: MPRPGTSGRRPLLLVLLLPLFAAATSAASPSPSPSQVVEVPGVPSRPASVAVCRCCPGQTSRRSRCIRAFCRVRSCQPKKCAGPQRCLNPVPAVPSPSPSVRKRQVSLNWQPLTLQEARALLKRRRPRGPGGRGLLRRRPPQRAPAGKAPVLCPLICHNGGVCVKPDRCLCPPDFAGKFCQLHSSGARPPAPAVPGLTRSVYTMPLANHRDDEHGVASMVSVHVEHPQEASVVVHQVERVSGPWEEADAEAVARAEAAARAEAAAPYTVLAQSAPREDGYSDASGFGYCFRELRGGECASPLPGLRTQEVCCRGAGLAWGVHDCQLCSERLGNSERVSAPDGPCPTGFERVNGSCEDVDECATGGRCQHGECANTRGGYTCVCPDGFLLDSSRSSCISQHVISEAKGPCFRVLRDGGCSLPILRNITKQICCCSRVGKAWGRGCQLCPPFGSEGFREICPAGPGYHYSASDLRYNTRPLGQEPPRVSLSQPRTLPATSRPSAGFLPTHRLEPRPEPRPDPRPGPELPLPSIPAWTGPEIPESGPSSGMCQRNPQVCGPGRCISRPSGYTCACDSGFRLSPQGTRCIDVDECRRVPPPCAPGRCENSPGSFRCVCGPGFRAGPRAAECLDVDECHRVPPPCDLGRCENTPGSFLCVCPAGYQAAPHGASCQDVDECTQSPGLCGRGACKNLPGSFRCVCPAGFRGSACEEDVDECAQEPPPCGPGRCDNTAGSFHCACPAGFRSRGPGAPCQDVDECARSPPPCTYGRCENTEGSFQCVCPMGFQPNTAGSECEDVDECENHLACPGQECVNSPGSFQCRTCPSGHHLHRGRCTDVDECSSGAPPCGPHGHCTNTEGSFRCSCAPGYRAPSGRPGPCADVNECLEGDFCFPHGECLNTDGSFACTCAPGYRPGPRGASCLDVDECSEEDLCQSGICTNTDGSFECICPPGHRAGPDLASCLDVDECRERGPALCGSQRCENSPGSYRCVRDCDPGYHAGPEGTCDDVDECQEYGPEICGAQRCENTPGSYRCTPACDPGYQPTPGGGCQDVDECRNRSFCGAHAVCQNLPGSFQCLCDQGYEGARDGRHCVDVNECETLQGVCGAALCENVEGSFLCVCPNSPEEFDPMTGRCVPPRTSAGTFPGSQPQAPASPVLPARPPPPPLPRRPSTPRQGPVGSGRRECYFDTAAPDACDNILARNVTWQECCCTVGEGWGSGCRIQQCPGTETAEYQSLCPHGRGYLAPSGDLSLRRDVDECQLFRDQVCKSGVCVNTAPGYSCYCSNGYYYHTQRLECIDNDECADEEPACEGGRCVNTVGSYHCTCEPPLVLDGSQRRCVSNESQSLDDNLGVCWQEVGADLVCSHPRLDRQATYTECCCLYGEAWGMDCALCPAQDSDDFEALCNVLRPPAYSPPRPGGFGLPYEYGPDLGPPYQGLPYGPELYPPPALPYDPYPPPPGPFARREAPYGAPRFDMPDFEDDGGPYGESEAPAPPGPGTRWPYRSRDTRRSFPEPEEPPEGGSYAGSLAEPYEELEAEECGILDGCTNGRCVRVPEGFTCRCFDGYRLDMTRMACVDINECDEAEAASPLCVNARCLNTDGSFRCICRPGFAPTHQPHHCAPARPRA
UniProt Q99759: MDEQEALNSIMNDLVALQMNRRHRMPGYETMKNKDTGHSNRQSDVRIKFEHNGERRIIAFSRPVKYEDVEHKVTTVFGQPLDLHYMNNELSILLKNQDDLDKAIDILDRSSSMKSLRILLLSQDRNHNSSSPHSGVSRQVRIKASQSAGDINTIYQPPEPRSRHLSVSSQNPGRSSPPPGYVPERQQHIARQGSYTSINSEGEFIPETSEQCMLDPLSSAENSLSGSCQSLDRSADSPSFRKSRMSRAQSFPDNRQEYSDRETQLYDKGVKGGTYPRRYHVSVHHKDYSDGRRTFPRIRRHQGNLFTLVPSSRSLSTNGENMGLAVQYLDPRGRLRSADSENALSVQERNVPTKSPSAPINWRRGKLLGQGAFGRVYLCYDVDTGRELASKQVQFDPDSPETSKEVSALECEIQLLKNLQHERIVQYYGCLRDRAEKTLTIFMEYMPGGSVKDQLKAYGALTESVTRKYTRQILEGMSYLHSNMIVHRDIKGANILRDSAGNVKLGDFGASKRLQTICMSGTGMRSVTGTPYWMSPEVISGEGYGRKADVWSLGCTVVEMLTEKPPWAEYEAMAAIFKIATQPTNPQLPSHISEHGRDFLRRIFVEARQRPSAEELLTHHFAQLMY

Legend:
Assay in all cases: log2 fold change, soluble protein after heating vs DMSO (PISA); higher = thermal stabilisation; K562 lysate, 10 uM; active = over 0.2 and 3.5 SD of the protein, either way, in both replicates (recomputed)
[1] = compound: CC1=C2C(=CC=C1)N=C(N(C2=O)C3=CC=CC=C3C)CN4C=NC5=C(N=CN=C54)N
In short: (§1)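 Values give the log-two fold change in thermal stability against solvent controls, from duplicates. Crude K562 extract at 1 mg/mL protein, made by dounce homogenisation in PBS pH 7.4 with 1 mM MgCl2, was treated with 10 μM compound for 30 min. After 3 min heating across 48°C-58°C, aliquots were pooled, adjusted to 0.5% NP-40 at 4°C and centrifuged at 21,000xg for 90 min. The supernatant was measured by TMTpro 16plex LC-MS/MS with channel sums equalised.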

[2] = compound: c1ccc([C@@H]2C[C@H]2NC2CCNCC2)cc1
In short: as §1

[3] = compound: C1=CC=C(C=C1)[C@H](COC2=CC3=C(C=C2)NC(=O)N3)NC(=O)C4=CC=CN(C4=O)CC5=CC(=C(C=C5)F)F
In short: as §1

[4] = compound: CC1=C(SC2=C1C(=N[C@H](C3=NN=C(N32)C)CC(=O)N)C4=CC=C(C=C4)Cl)C
In short: as §1

[5] = compound: Cc1sc2c(c1C)C(c1ccc(Cl)cc1)=N[C@@H](CC(=O)OC(C)(C)C)c1nnc(C)n1-2
In short: as §1

Target: MAFF (UniProt Q9ULX9)
- log2 fold change [1]: inactive: -0.114
- log2 fold change [2]: inactive: 0.03

Target: LYPLA1, A0A087X1K9
- log2 fold change [1]: inactive: 0.323
- log2 fold change [2]: inactive: -0.155

Target: LTBP4 (UniProt Q8N2S1)
- log2 fold change [3]: inactive: 0.086
- log2 fold change [4]: inactive: 0.117
- log2 fold change [5]: inactive: 0.043
- log2 fold change [2]: inactive: -0.028

Target: MAGI1 (UniProt H7C4S7)
- log2 fold change [5]: inactive: 0.016

Target: MAP3K3 isoform 2 (UniProt Q99759)
- log2 fold change [1]: inactive: 0.031
- log2 fold change [5]: inactive: 0.005
